{"sequences": {"note": "Sequences of proteins named here, by UniProt entry; tags and fusion partners are left off. A change or cut given only in a name is not applied to a line headed by its entry. Residues count along the entry.", "UniProt O88751": "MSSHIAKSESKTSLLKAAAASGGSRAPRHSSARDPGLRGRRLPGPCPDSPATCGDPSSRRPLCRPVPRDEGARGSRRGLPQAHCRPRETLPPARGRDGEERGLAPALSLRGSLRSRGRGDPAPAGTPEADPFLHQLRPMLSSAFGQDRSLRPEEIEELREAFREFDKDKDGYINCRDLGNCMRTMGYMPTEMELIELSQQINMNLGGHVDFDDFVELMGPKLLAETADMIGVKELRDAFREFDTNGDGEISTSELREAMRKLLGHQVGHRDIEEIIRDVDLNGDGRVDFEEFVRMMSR", "GST fusion protein containing the C-terminal half (aa 137-298) of Caldendrin": "residues 137-298 of O88751"}, "source": "paper PMC2253627", "molecules": {"B1": {"name": "Jacob (full length, yeast two-hybrid) (protein, UniProt Q9EPI6 1-532)", "chain": "MGAAASRRRALRSEAMSSVAAKVRAARAFGEYLSQSHPENRNGADHLLADAYSGHEGSPEMQPAPHNKRRLSLVSNGRYEGSISDEAVSGKTATEGPQPRVYTISREPALLPGSEAEAIELAVVKGRRQRERHPHHHSQPLRASPGSSREDISRPCQSWAGSRQGSKECPGCAKLVPGPSPRAFGLEQPPLPEASGRHKKLERMYSVDGVSDDVPIRTWFPKENPFSFQTATTTMQAISVFRGYAERKRRKRENDSASVIQRNFRKHLRMVGSRRVKAQTFAERRERSFSRSWSDPTPMKADTSHDSRDSSDLQSSHCTLDEACEDLDWDTEKGLEATACDTEGFLPPKVMLISSKVPKAEYIPTIIRRDDPSIIPILYDHEHATFEDILEEIEKKLNIYHKGAKIWKMLIFCQGGPGHLYLLKNKVATFAKVEKEEDMIHFWKRLSRLMSKVNPEPNVIHIMGCYILGNPNGEKLFQNLRTLMTPYKVTFESPLELSAQGKQMIETYFDFRLYRLWKSRQHSKLLDFDDVL"}, "B2": {"name": "Jacob (endogenous, rat brain) (protein, UniProt Q9EPI6 1-532)", "chain": "B1 chain"}}, "key": {"[1]": {"biological_target": "T1, Jacob (endogenous, rat brain) (rat (endogenous in rat brain)) (UniProt Q9EPI6)", "T1 sequence": "B1 chain", "test": "co-IP; immunoaffinity columns: 15 mg protein of the 100,000 x g supernatant of a rat brain membrane extract loaded on an anti-Jacob or an anti-Caldendrin affinity column; eluates blotted"}, "[2]": {"biological_target": "T1, Jacob (endogenous, rat brain) (rat (endogenous in rat brain))", "test": "co-IP; rat brain extract, rabbit anti-Jacob on protein A sepharose, 5 mM EGTA in the precipitation buffer"}, "[3]": {"biological_target": "T1, Jacob (endogenous, rat brain) (rat (endogenous in rat brain))", "test": "co-IP; rat brain extract, rabbit anti-Jacob on protein A sepharose, 100 μM Ca2+ in the precipitation buffer"}, "[4]": {"biological_target": "T2, myc/his-tagged WT Jacob (rat) (UniProt Q9EPI6)", "T2 sequence": "B1 chain", "test": "pull-down; competition: equimolar recombinant Caldendrin added to the GST-Importin-α1 pull-down of myc/his-tagged WT Jacob, 2 mM Ca2+; only the binder purified"}, "[5]": {"biological_target": "Caldendrin (entire open reading frame, yeast two-hybrid bait in pAS2-1) (UniProt O88751)", "test": "two-hybrid; yeast; Caldendrin bait in pAS2-1, rat brain cDNA library in pACT2; deletion and point mutation constructs cotransformed; β-galactosidase colony lift assay scored by time to blue colonies (1 h, 3 h, 6 h)"}, "[6]": {"biological_target": "GST fusion protein containing the C-terminal half (aa 137-298) of Caldendrin (UniProt O88751)", "test": "pull-down; Triton X-100-extracted P2 fraction incubated with glutathione sepharose loaded with GST-Caldendrin (aa 137-298) at 100 μM Ca2+ in the presence or absence of 40 μg recombinant CaM; western blot with anti-JB150; only the target purified"}, "[7]": {"biological_target": "Caldendrin (endogenous, rat brain) (rat (endogenous in rat brain)) (UniProt O88751)", "test": "co-IP; immunoaffinity columns: 15 mg protein of the 100,000 x g supernatant of a rat brain membrane extract loaded on an anti-Jacob or an anti-Caldendrin affinity column; eluates blotted"}, "[8]": {"biological_target": "GST fusion protein containing the C-terminal half (aa 137-298) of Caldendrin (UniProt O88751)", "test": "pull-down; Triton X-100-extracted P2 fraction of rat brain incubated with glutathione sepharose loaded with GST-Caldendrin (aa 137-298) at different Ca2+ concentrations; 1 μM free Ca2+ required; only the target purified"}}, "note": "These are yes or no findings as the source states them, for the method shown. For some assays here: Binding seen in cells or lysates may run through a third protein. Some entries that bind do so weakly or less than the wild type. For some assays here: Sequences can lack the tags named with a protein."}
{"molecule": "Caldendrin (endogenous, rat brain) (from UniProt O88751 1-298)", "values": [{"measurement": "binding", "setting": "[1]", "value": "binds"}, {"measurement": "binding", "setting": "[2]", "value": "no binding (condition: with 5 mM EGTA)"}, {"measurement": "binding", "setting": "[3]", "value": "binds"}]}
{"molecule": "recombinant Caldendrin (competitor in the GST-Importin-α1 pull-down) (from UniProt O88751 1-298)", "values": [{"measurement": "binding", "setting": "[4]", "value": "binds"}]}
{"molecule": "B1", "values": [{"measurement": "binding", "setting": "[5]", "value": "binds"}]}
{"molecule": "B2", "values": [{"measurement": "binding", "setting": "[6]", "value": "binds"}, {"measurement": "binding", "setting": "[7]", "value": "binds"}, {"measurement": "binding", "setting": "[8]", "value": "binds"}]}
